# Data published in PubChem BioAssay AID1508600 (Functional Genomics Laboratory (NCATS/FGL), 2020).
# Hit rate of the full screen: of about 53,000 sequences, about 3,700 (7%) were called active.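 Rule for the calls: active = gene knockdowns whose robust z-score for IL-1 alpha signal is at least 2 or at most -2, so actives lie on both sides; inactive = the rest.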 This is one part of the list.
# Assay: Components of the Cytosolic LPS Sensing Pathway: Gene Identification via Genome-wide siRNA Screen;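 note: robust z of the log signal after scaling to non-targeting control siRNA wells of the plate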
# Settings: RAW264.7 macrophages, IL-1a HTRF, actives lie on both sides, screened at 100 nM (by protocol), cells primed 5 h with Pam3CSK4 first
# Summary of the method: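 IL-1a HTRF of supernatants after 24 hour LipidA transfection of Pam3CSK4-primed (5 hours) RAW264.7 cells, 48h post-siRNA transfection (100 nM). Scores: percent of plate negative-control median, then log-based robust z-score.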
row,Sequence,z-score
1,GGCAUUUGCACAGUUUAUGTT against Upp2,inactive: -1.42
2,GGACUUGGAACAGAAAAAGTT against Asb8,inactive: -0.261
3,GGUUUUCAAAGUCCUGAAUTT against Myo3a,inactive: -1.96
4,GGAACAGGAAUGGUAAUGCTT against Tmem39a,inactive: -1.26
5,GGCUUGUGUCCACUUAGCATT against Olfr1404,inactive: -1.01
6,GGCUCUUCGUCGGAAGAAUTT against Ccdc9,inactive: -0.292
7,GACGACAUUCAUGAAGCGCTT against Rasl2-9,inactive: -1.21
8,GGAUAUCAUGAAAACACUCTT against Katna1,inactive: -0.385
9,GGUACAUGUAUUGUUUCACTT against Cyp2c38,active: 2.76
10,CCGCCUACAUGGUUCUCUUTT against Vat1,inactive: -1.46
11,GGGCUUCUUUAGAAGAACCTT against Thrb,inactive: 1.94
12,GGACUUUGUUUCUUGAUGGTT against Dkk1,inactive: -0.771
13,GCUUUCGUGUGAUCUUUUATT against Derl2,inactive: -0.435
14,GGUCUUUUCUACAUGUGGATT against Olfr389,inactive: 0.268
15,GGUGAUGCCUUAUUUUGAATT against Ap5s1,inactive: -1.1
16,GGAUGCUCUGCUAAUGAUUTT against Cadps2,inactive: -0.0687
17,GGUACAUACUUAUGAAAAGTT against Havcr1,inactive: 0.35
18,GGAUACAGUUUCUGAAAUCTT against Mlxipl,active: 2.6
19,CGAUUUGCCUUAUUUUUCATT against Litaf,inactive: 1.23
20,GGAAAAGGUUACCUUGCCCTT against Clmp,inactive: -0.255
21,CGGAGAGACUUUGCCUCUATT against Samd11,inactive: -1.25
22,CCUAGAGCGUGCCCUAGAATT against Taco1,inactive: -0.231

row,Sequence,z-score
1,GGCCAGUCACUCAACCUUATT against Phc1,inactive: -0.421
2,GGUAUUCUUCUACACUCCATT against Mrm1,inactive: -0.693
3,GCGUGUUCACUUGUGUGGUTT against Ap5z1,inactive: 0.553
4,GGACAGCCCUUCUUUGUCUTT against Il17rb,inactive: -1.96
5,CCUCAAUGAAGACCCAUUATT against Kif1b,inactive: -1.35
6,GGUAUAAUUUAGGUGACUATT against Epc1,inactive: -0.723
7,GAUGUUUCAGAACAUUCUUTT against Cadps,inactive: 0.436
8,CGAAUAUCUGCAUUUAUUGTT against Mbip,inactive: 0.513
9,GCCAAUUUGACUUGUAAGUTT against Slc22a3,inactive: 1.4
10,GGUUCUCCAUACUUAUGCCTT against Prex1,active: 2.97
11,CCCUUUGCCGAAUACAUUUTT against Dpys,inactive: 0.892
12,GGAAGAUCAUUGAUAACGCTT against Mctp1,inactive: 0.89
13,CCAAACCUGUCUCUUAUCATT against Slco1c1,inactive: 0.385
14,GCAAUCAAGGUUAAAAUUGTT against Slfn2,inactive: 0.0834
15,GGCGGCACAAAUUGUUUUUTT against Gimap9,active: -2.03
16,GGGCUUGUUAGCAUCAUCCTT against Olfr382,inactive: 1.31
17,CCAUAUAGCCUCAAAAUCGTT against Acat2,inactive: -0.395
18,GGGUGACAACGGUUCUUACTT against Siglech,inactive: -0.626
19,GGCAAGAGGAAAAAGCGGATT against Rpusd2,inactive: 0.0506
20,GGCAAUAACAUUGCCUCGGTT against Igf1r,inactive: 0.632
21,GGAGAUCUACAAGGAAUUCTT against Men1,inactive: 0.97
22,GGGCAAGGAUGUGUUGAAATT against Dhx37,inactive: 0.315

row,Sequence,z-score
1,CGUGCUUAUUUUCAAGAAGTT against Kdf1,inactive: -0.0767
2,CCACAAUUGGGUAAGAUUATT against Glipr2,inactive: -0.585
3,GGAAUUCAACAGACAAAUATT against Paip2,inactive: 0.0793
4,GGUAAAGCCAAAGAACAAATT against Enpp2,inactive: 1.11
5,GACGAAAACCAACAGCACGTT against Rbp2,inactive: -0.0422
6,CCAACGCGCACGGCCGCGCTT against Tmem158,inactive: -0.359
7,GGUAGCUGAAGAAGACUUCTT against Reg2,inactive: -0.591
8,GGCUAACAAACUCAUACCCTT against Guca2a,inactive: -1.68
9,GGAGGAAUUUCUUCUCUAUTT against Slc22a29,inactive: -1.83
10,GGAAGAGGAAGAAAUUAUATT against Zbtb33,inactive: 0.684
11,GGACCAAUCCUACAAUAUATT against Cyp19a1,inactive: 0.289
12,GGUAUUCACAAAGAGAUACTT against Parp8,inactive: 0.107
13,GGAUAUAGAUCUGAUUGACTT against Nfe2l1,inactive: 0.969
14,CCUGGUGUUCGUGUACCUGTT against Cdk5r2,active: 3.1
15,GGACAACAUACGAUAUUCATT against C2cd6,inactive: -0.207
16,GGUUGUUCGUGGACACUACTT against Rpl26,inactive: -0.404
17,GGCAAAGAAUACUAUGUGUTT against Prss48,inactive: -0.181
18,GGAUGAUGACUUUGAGAAGTT against Map2k1,inactive: 1.52
19,GCAGACAUUACCCUAUAGUTT against Mtf2,inactive: 0.21
20,GAGAAUGAGUUCUGCCCAGTT against Lhb,active: 2.24
21,GCUUUUCCACAUUUUAAGGTT against Gtpbp10,inactive: 0.391
22,GGAUUCAUUCAACCCAUGGTT against Olfr1441,inactive: -1.54

# 5 entries drawn at random from the list so far:
row,Sequence,z-score
8,GGCUAACAAACUCAUACCCTT against Guca2a,inactive: -1.68
14,CCUGGUGUUCGUGUACCUGTT against Cdk5r2,active: 3.1
5,GACGAAAACCAACAGCACGTT against Rbp2,inactive: -0.0422
17,GGCAAAGAAUACUAUGUGUTT against Prss48,inactive: -0.181
10,GGAAGAGGAAGAAAUUAUATT against Zbtb33,inactive: 0.684

# Going on with the list.

row,Sequence,z-score
1,CCUACAUGUAAUCCAUUUUTT against Rab31,inactive: 0.00773
2,GCGUUCACGGUCAAAAAAUTT against Fbxw10,inactive: -0.586
3,GCGCAACUAACUCACAACATT against 4930556L07Rik,inactive: 0.705
4,GGACCCUCUGCUCUUCAUUTT against Slc4a9,inactive: 2
5,CCUUUAGCAUAAUAGGAAUTT against 9230109A22Rik,inactive: -0.561
6,GCUUCUCUCUUCAUCUAUGTT against Olfr524,inactive: -0.685
7,CGAUACCUUUAGUUGACUATT against Hcrtr2,inactive: -0.445
8,GCUUGCUAUACGUGGAGAUTT against H2az1,inactive: -0.803
9,GGACCUGUCCAUCUUCAUCTT against Scn1b,active: 3.87
10,GGGAAUACUGUGAACACCGTT against Gm4983,inactive: 0.592
11,GCCAAUAAUUGUCACACAUTT against Adgrg3,inactive: 1.94
12,GCAAUGAACUAUGAAGGCATT against Npm1,inactive: -0.32
13,GGUGAGAACUCAGAUAAGCTT against Txk,inactive: -1.06
14,CCUUUGAAUCCCAGGUUCATT against Lmo1,active: 3.05
15,AAAUUCUGCCUGACGAGAUTT against Scgb3a1,inactive: 0.599
16,GGUAUAGAUCAGAAGAACUTT against Bfar,inactive: 1.81
17,GGUCUACCACUUCAACUUCTT against Sema7a,inactive: 0.495
18,GCUCCCACCCUUAAAUAAUTT against Ptgr1,inactive: -1.26
19,GGCUCAUGGAAAACUCUAUTT against Hspa9,active: 2.24
20,GGUCUACCCAUGACCUACUTT against Nme4,inactive: -1.45
21,GGAUGUGAAGAUCUAUCUUTT against Itm2c,inactive: 0.573
22,GUACGAAGACUUCUCUAGUTT against Ankrd33b,inactive: 0.101

row,Sequence,z-score
1,GGUACCUGUUUGUUUUACATT against Epb41l4b,inactive: 0.75
2,UGGCCUGAUCAUGAACAGUTT against S100a7a,inactive: 1.21
3,GCAACAACAACAUUGCCUATT against Tmsb15l,inactive: -0.448
4,GGGAAACUCAAUGUAGAUGTT against Arhgap5,inactive: -1.01
5,GGCUUGUUAAUGAAUGCACTT against Ankrd9,inactive: -0.894
6,GGUGCUAAAGUCAAAAAACTT against Fras1,inactive: 0.218
7,CCCGGGUGCAAAACAUUCATT against Cenpu,inactive: 0.939
8,GGUGUACCAGCAAACUUUUTT against Nhlh2,inactive: 0.117
9,GGGAAUUGGCUAUCACAGATT against Retreg3,inactive: 0.23
10,GCCACACUCCAUAAUUAGGTT against Fam117b,inactive: 1.15
11,GCCAUUUCAUACAUUUUACTT against Atg2b,inactive: -0.332
12,GGUCUAGCAGCAAUGAAUGTT against Ggt6,inactive: -0.693
13,GCAGUGUAUUGGUAAUCAATT against Olfr630,inactive: 1.44
14,GGUCGAUUUGUCCUUGUGCTT against Rassf7,active: -2.04
15,GCUUAAAGUGCAUCGCCAATT against Stc1,inactive: 0.0751
16,GGAUGUGUUGUCUUUGGAUTT against Nwd1,inactive: -0.658
17,CCCGGAUCUGAAAACUGAUTT against Capns1,inactive: 0.192
18,GGAGAGCUCUAUGGAUCGATT against Fgf16,inactive: 0.784
19,GGAUGUGAAGAGCAAUCAGTT against Pgp,inactive: -1.91
